Earlier results on one molecule are cited in patent publication US11130726B2, “Therapeutic compounds and methods of use thereof” (GENENTECH, INC., priority 2015, dated 2021).

Structures are written as SMILES.

The conditions of this data set: administered topically (Lidoderm patch); cited from earlier work.

Take `CCN(CC)CC(=O)Nc1c(C)cccc1C` [lidocaine]: the plasma concentrations entry is on record as “about 1 μM”.
